No constants are given. Whether binding was seen depends on the method and setting. A result given as binding can be weak or reduced; the word gives no strength.
Biological target: HLA-B*07:02 (human)
Test: UV peptide exchange, anti-b2m ELISA

binding	Binder
binds	SPSPVTSTL [… (SEQ ID NO: 358)]
binds	NVLTSTPAF [… (SEQ ID NO: 351)]
binds	NPSSTTTEF [… (SEQ ID NO: 350)]
binds	SPSVSSNTY [… (SEQ ID NO: 360)]
binds	FPHPEMTTSM [… (SEQ ID NO: 331)]
binds	EPVTSSLPNF [… (SEQ ID NO: 328)]
binds	RPLFYVVSL [… (SEQ ID NO: 311)]
binds	FPAMTESGGMIL [… (SEQ ID NO: 329)]
binds	HPVETSSAL [… (SEQ ID NO: 337)]
binds	SPTHVTQSL [… (SEQ ID NO: 361)]
binds	RPMPNLRSV [… (SEQ ID NO: 323)]
binds	LPTQTTSSL [… (SEQ ID NO: 344)]
binds	SPLPVTSLI [… (SEQ ID NO: 327)]
binds	FPHSEMTTVM [… (SEQ ID NO: 333)]
binds	EPKTATVL [EPKTATVL (SEQ ID NO: 316)]
binds	VPSEIDAAF [… (SEQ ID NO: 326)]
binds	LPSVSGVKTTF [… (SEQ ID NO: 343)]
binds	FPHSEMTTL [… (SEQ ID NO: 332)]
binds	VPDQPHPEI [… (SEQ ID NO: 314)]
binds	SPAETSTNM [… (SEQ ID NO: 352)]
binds	SPSTIKLTM [… (SEQ ID NO: 359)]
binds	LPWDTSTTLF [… (SEQ ID NO: 346)]
binds	SPAEPSVYATL [… (SEQ ID NO: 319)]
binds	SPMDTFLLI [… (SEQ ID NO: 321)]
binds	LPYGPGSEAAAF [… (SEQ ID NO: 307)]
binds	SPLVTSHIM [… (SEQ ID NO: 355)]
binds	LPLDTSTTL [… (SEQ ID NO: 341)]
binds	LPAGTTGSLVF [… (SEQ ID NO: 339)]
binds	KVKSDRSVF [… (SEQ ID NO: 313)]

The next lines start with the binder.

Binder	binding
MPNSAIPFSM [… (SEQ ID NO: 348)]	binds
HPDPVGPGL [… (SEQ ID NO: 335)]	binds
GPRNAQRVL [… (SEQ ID NO: 325)]	binds
FPNRLNLEA [… (SEQ ID NO: 318)]	binds
FPFVTGSTEM [… (SEQ ID NO: 330)]	binds
SPLPVTSLL [… (SEQ ID NO: 354)]	binds
MPSLSEAMTSF [… (SEQ ID NO: 349)]	binds
SPNEFYFTV [… (SEQ ID NO: 356)]	binds
SPDPSKHLL [… (SEQ ID NO: 322)]	binds
FPMSPVTSV [… (SEQ ID NO: 320)]	binds
SPAMTTPSL [… (SEQ ID NO: 353)]	binds
FPQSQYPQY [… (SEQ ID NO: 309)]	binds
LPLGTSMTF [… (SEQ ID NO: 342)]	binds
MPLTTGSQGM [… (SEQ ID NO: 347)]	binds
APVIFSHSA [… (SEQ ID NO: 306)]	binds
FPFQPGSV [FPFQPGSV (SEQ ID NO: 317)]	binds
SPSPVPTTL [… (SEQ ID NO: 357)]	binds
HVTKTQATF [… (SEQ ID NO: 338)]	binds
LPEISTRTM [… (SEQ ID NO: 340)]	binds
SPRENFPDTL [… (SEQ ID NO: 315)]	binds
HPKTESATPAAY [… (SEQ ID NO: 336)]	binds
LPYFREFSM [… (SEQ ID NO: 312)]	binds
LPTSESLVSF [… (SEQ ID NO: 345)]	binds
VPYRVVGL [VPYRVVGL (SEQ ID NO: 324)]	binds
FPYSEVTTL [… (SEQ ID NO: 334)]	binds
SPVPVTSLF [… (SEQ ID NO: 362)]	binds

From US20230365651A1
